In patent US20220026420A1, “MOLECULES AND METHODS FOR IMPROVED IMMUNODETECTION OF SMALL MOLECULES SUCH AS HISTAMINE” (PRESIDENT AND FELLOWS OF HARVARD COLLEGE, priority 2018, published 2022):

Assays:
[1] = tested on: anti-histamine antibody; experiment: 5-minute electrochemical assay in spiked human plasma samples; type: binding
From the text: The Immuno-assay developed on the ELISA plates using PEG-dual Histidine was translated to an electrochemical platform to develop a biosensor for free histamine detection in human plasma samples.

[2] = tested on: anti-histamine antibody; experiment: Competitive histamine ELISA with PEG linkers on streptavidin plates, anti-IgG HRP detection; type: binding; conditions: 5 min incubation of anti-histamine antibody, FIGS. 17A, 17B
Experimental: To identify an antibody that recognizes free histamine with improved (lower) binding affinities, we used the PEG-mono-histidine linker (Structure 1) as a target with antibodies that we previously screened with BSA-histamine, i.e., the antibodies listed in FIG. 3A. […] The monovalent histidine linker (25 μM) 86 was added for 1 hour, and then 5 μg ml^−1 anti-histamine antibody was incubated with different concentrations of soluble histamine for 1 hour at room temperature on a shaker 88. Finally, anti-IgG labelled HRP 810 was used to detect the bound antibodies.
The monovalent histidine linker (25 μM) 86 was added for 1 hour, and then 5 μg ml^−1 anti-histamine antibody was incubated with different concentrations of soluble histamine for 1 hour at room temperature on a shaker 88. Finally, anti-IgG labelled HRP 810 was used to detect the bound antibodies.
Histamine detection assay could be performed in two formats. The first format includes the immobilization of histamine conjugates to the solid support while the second format includes the immobilization of anti-histamine antibody on the solid support. For the immobilization of histamine conjugates the immobilization sample was prepared in 0.2 M carbonate-bicarbonate buffer (pH 9.4). Immobilisation samples herein refers to BSA-histamine, Streptavidin, and not limited to BSA-Histidine Samples. […]

Compound | current ([1]; 0 nM histamine) [nA] | current ([1]; 3.75 nM histamine) [nA] | deviation from the trend line in detecting free histamine [2]
NC(=O)C(CCCCNC(=O)C(CCCCNC(=O)C(N)Cc1c[nH]cn1)NC(=O)C(N)Cc1c[nH]cn1)NC(=O)CCOCCOCCOCCOCCNC(=O)CCCCC1SC[C@H]2NC(=O)N[C@@H]12 (stereo partly shown) [PEG-dual Histidine, Biotin-PEG-Dual-Histidine] | 439 | 278 | 
NC(=O)C(CCCCNC(=O)C(CCCCNC(=O)C(CCCCNC(=O)C(CCCCNC(=O)C(N)Cc1c[nH]cn1)NC(=O)C(N)Cc1c[nH]cn1)NC(=O)C(CCCCNC(=O)C(N)Cc1c[nH]cn1)NC(=O)C(N)Cc1c[nH]cn1)NC(=O)C(CCCCNC(=O)N(CCCCNC(=O)C(N)Cc1c[nH]cn1)NC(=O)C(N)Cc1c[nH]cn1)NC(=O)C(CCCCNC(=O)C(N)Cc1c[nH]cn1)NC(=O)C(N)Cc1c[nH]cn1)NC(=O)CCOCCOCCOCCOCCNC(=O)CCCCC1SC[C@H]2NC(=O)N[C@@H]12 (stereo partly shown) [Structure 4, Biotin-PEG-Octo-Histidine] |  |  | higher standard deviation from the trend line
Biotin-PEG-Four Histidine [Structure 3] |  |  | higher standard deviation from the trend line
